We go through 4 substances from publication PMC9712689.

For assay [1], the target named is RlpA-Δ32, fluorescently labeled (P. aeruginosa PAO1) (UniProt Q9X6V6). Description: MST; both purified.
The target in assay [2] is RlpA-Δ32 (P. aeruginosa PAO1) (UniProt Q9X6V6). In words: SPR; both purified. (In general: In SPR one partner is held on a chip, and binding of the other changes the refractive index at the surface.)
The target in assay [3] is T1, RlpA-SPOR (P. aeruginosa PAO1) (UniProt Q9X6V6).
T1 sequence: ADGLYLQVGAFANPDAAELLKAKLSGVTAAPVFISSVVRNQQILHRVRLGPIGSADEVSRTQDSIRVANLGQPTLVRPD
Description: SPR; both purified.

These are yes or no findings as the source states them, for the method shown. For some assays here: Binding calls can cover weak binding; strength is not graded here.

Consider AlgO (from UniProt Q9HYY3), for which the binding entry in assay [1] and in assay [2] was “no binding” in each case. Turning to LptE (from UniProt Q9HX32), the binding result in assay [2] is recorded as “binds”. As to MltA (from UniProt Q9I4B6) (enzyme), in assay [2], the binding result was “binds”. On to PA4063 (from UniProt Q9HWW5), for which the binding result in assay [3] is “no binding”.
